# Screening data, single-dose tests

The values are deposited in ChEMBL (CHEMBL3988442, “University of Dundee, Small-Polar-MMV Screening Library” (2021)).

Each number is a percent effect as filed.
How 0% and 100% were set is not recorded. Most values in the screen are low, and negative values occur.
This is an unselected part of the compounds tested.
Two or more numbers in one place are separate tests of the same structure; such repeats can differ widely.

Mtb cholesterol medium: 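Whole-cell growth test on Mycobacterium tuberculosis, read after 4 days in a medium based on cholesterol and the lipid DPPC; the read-out is not stated. Tested at 50 µM. The record gives no direction; compounds that gave an IC50 in retests scored well above the rest, so higher reads as more growth inhibition. Of about 69,000 compounds tested this way, about 370 (0.54%) reached 50% or more in at least one test.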
Mtb glucose medium: 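Growth of Mycobacterium tuberculosis over 3 days (7H9 medium with glucose and tyloxapol); the read-out is not stated. Concentration: 50 µM. Direction is inferred from retests: higher values go with more growth inhibition. About 69,000 compounds were tested under these conditions; 1.1% (about 760) showed 50% or more at least once.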

| # | structure | Mtb cholesterol medium | Mtb glucose medium |
|---|---|---|---|
| 1 | `COc1cc(C2CC(=O)Nc3c2cnn3C)ccc1O` (stereo not shown) | -11.39% | -0.3078% |
| 2 | `COc1ccc(C(C)C)cc1C1CC(=O)NCc2nc(N(C)C)sc21` (stereo not shown) | 15.07% | -15.83% |
| 3 | `CCCc1noc(CN2CCCC2c2ccsc2)n1` (stereo not shown) | 6.977% | -3.825% |
| 4 | `O=C(CC1CCN(c2ncnc3ccccc23)CC1)N1CCCC1` | -18.92% | -36.82% & -0.09461% |
| 5 | `Cn1cc(C(=O)N2CCCC(n3cccn3)C2)c2ccccc21` (stereo not shown) | -7.688% | -12.69% |
| 6 | `CCSc1ccc(C(C)NC(=O)CNS(C)(=O)=O)cc1` (stereo not shown) | 0.5702% | 26.69% |
| 7 | `Cc1cc(CN(Cc2ccccc2)C(C)CN2CCOCC2)no1` (stereo not shown) | -4.691% & 4.915% | 5.934% & 19.26% |
| 8 | `O=C1NC2(CCN(C(=O)CN3CCOCC3)CC2)Nc2ccc(Cl)cc21` | -6.922% & 6.814% | 13.39% |
| 9 | `Cc1ccc(CN(c2cc(C)nc3nc(C(F)(F)F)nn23)C2CC2)cc1` | -14.15% | -6.896% |
| 10 | `Cc1cc(C(=O)N2CC[C@]3(C[C@@H](OCc4ccccn4)CO3)C2)c(C)o1.O=C(O)C(F)(F)F` | -27.68% & -20.45% | -45.45% |
| 11 | `CCCN1CCCC2(CCN(S(=O)(=O)N3CCC(OC)CC3)C2)C1=O` (stereo not shown) | -12.18% | -4.464% |
| 12 | `O=C(CCC(=O)Nc1ccccc1)NCC(=O)c1ccc(F)cc1F` | 2.864% | -9.113% |
| 13 | `COc1ccc(C)cc1CN1CCN(Cc2nccn2C)CC1` | 4.975% | 1.127% & 9.306% |
| 14 | `COc1cccc(-c2cnc(CNC(C)(C)c3nc(C)cs3)o2)c1` | 42.84% & -9.268% | 37.97% |
| 15 | `CCOc1cccc(CNc2cncc(-n3cccn3)n2)c1` | 26.38% | 31.08% |
| 16 | `Fc1cnc(N2CCCC3(CCN(Cc4ccoc4)C3)C2)nc1.O=C(O)C(F)(F)F.O=C(O)C(F)(F)F` (stereo not shown) | 1.171% | 5.101% |
| 17 | `COc1ccccc1[C@@H]1CN(Cc2ccc3nsnc3c2)C[C@H]1C(=O)O` | -17.62% | 8.055% |
| 18 | `CN1CC2(CCCN(c3cnccn3)C2)OC1=O` (stereo not shown) | -3.914% | -24.4% |
| 19 | `O=C1CSC(c2ccc(Cl)cc2Cl)c2c(n(C3CCOCC3)[nH]c2=O)N1` (stereo not shown) | -4.83% | 6.692% |
| 20 | `Cc1cnn(C2CCCN(C(=O)CCCc3ccccn3)C2)c1` (stereo not shown) | -17.01% | 9.004% & -0.1364% |
| 21 | `O=C(O)C(F)(F)F.[H][C@@]12CCN(Cc3ccsc3)C[C@]1([H])[C@H](C(=O)N1CCCC1)CCO2` | 15.97% & -5.718% | -12.28% |
| 22 | `O=C(O)C(F)(F)F.[H][C@@]12CCN(c3cc(OC)ncn3)[C@]1([H])CC[C@H](C(=O)NC1CCCC1)O2` | 0.6989% | -27.25% |
| 23 | `CCc1nc(CN2CCOC(Cn3cncn3)C2)no1` (stereo not shown) | 3.025% | -8.767% & -87.29% |
| 24 | `Cc1cccc(CN2CCC3(CCCN(C(=O)NC4CC4)C3)C2=O)n1.O=C(O)C(F)(F)F` (stereo not shown) | 1.269% | -13.87% |
| 25 | `N#Cc1cccc(S(=O)(=O)N(CC2CCC2)c2cn[nH]c2)c1` | -14.73% | -11.97% & 1.696% |
| 26 | `COCC(=O)N1CCC2(CCN(Cc3cccnc3)C2)CC1.O=C(O)C(F)(F)F.O=C(O)C(F)(F)F` | 7.546% | -10.96% |
| 27 | `CC(C)C(=O)N1CCC(n2nc(-c3ccco3)ccc2=O)CC1` | -18.43% | 17.06% |
| 28 | `NC1(C(=O)NCC2CCCN(Cc3cccc4nonc34)C2)CCC1` (stereo not shown) | -12.65% | -7.68% & 7.875% |
| 29 | `Cc1cc(C)n(CC2CCCCN2CC(=O)Nc2nccs2)n1` (stereo not shown) | 5.187% | -13.27% |
| 30 | `c1cnc(NCc2n[nH]c3c2CCN(Cc2ccncc2)C3)nc1` | 3.247% | -0.03865% & -0.43% |
| 31 | `CN(C)C1CCCN(C(=O)CCc2csc(N)n2)CC1` (stereo not shown) | -5.191% | 8.626% |
| 32 | `CCCOc1cc(CNC(=O)Nc2cccc(C(C)=O)c2)ccn1` | 13.51% | 27.97% |
| 33 | `COc1cccc(CN(C)CCCn2cnc3c(N)ncnc32)c1` | -8.643% | -0.0763% |
| 34 | `c1cc(-c2cnccn2)cc(-c2ccn(CCCN3CCCCC3)n2)c1` | 27.82% | 38.59% & 11.94% |
| 35 | `Cc1ccc2[nH]c(=O)cc(C(=O)N[C@@H]3C[C@@H](CO)N(C)C3)c2c1` | -13.8% | -7.945% & 5.129% |
| 36 | `Cc1noc(C(C)N(C)Cc2ccco2)n1` (stereo not shown) | 4.741% & -8.76% | 39.95% |
| 37 | `CC(C)(C)OC(=O)N1CCC(C(=O)NCCNc2ncccn2)CC1` | 13.03% | 12.19% & -1.219% |
| 38 | `CC1=C[C@@H](CC#N)[C@H](C(C)C)C[C@H]1CC(=O)N1CCN(CCO)CC1` | 10.29% | -6.947% & -0.9216% |
| 39 | `O=C(Cn1ccc(=O)[nH]c1=O)Nc1ccccc1F` | -1.394% & -10.32% | -49.9% |
| 40 | `COCC(=O)NCc1cc(=O)n2c(n1)CN(CC1CC1)CCC2.O=C(O)C(F)(F)F` | -3.578% | -42.1% |
| 41 | `CNC(=O)c1cnc(/C=C/c2cc(OC)c3c(c2)OCCO3)s1` | 1.533% | 10.42% & -0.1643% |
| 42 | `Cc1cnn(C2CCCN(C(=O)c3ccc(N(C)C)nn3)C2)c1` (stereo not shown) | -17.76% | -9.001% |
| 43 | `O=C(O)C(F)(F)F.[H][C@@]12COC[C@]1([H])[C@H](OCc1csc(C)n1)CN2Cc1ccc(C)s1` | 7.303% | -7.839% |
| 44 | `Cn1cc(C(O)CNC(=O)c2cc(Br)ccc2Cl)cn1` (stereo not shown) | 7.39% | 15.94% |
| 45 | `COc1cccc(COCC(=O)N2CCN(S(C)(=O)=O)CC2)c1` | 10.22% | -3.04% |
| 46 | `Cc1cnn(CC(=O)N2CCC(Nc3ccc(C)nn3)CC2)c1` | -14.64% | -15.43% |
| 47 | `Cc1cccc(-c2cccc(CC3(C(=O)O)CCOCC3)c2)c1` | -20.58% | -45.33% |
| 48 | `CCS(=O)(=O)N1CCC2(CCC2NC(=O)c2ccn(C)c2)CC1` (stereo not shown) | -7.611% | 5.12% |
| 49 | `CCn1nc2c(cc1=O)CN(Cc1nc3ccccc3c(=O)[nH]1)CC2` | -4.867% | -20.71% & -12.4% |
| 50 | `Cc1nnc(SCCC(=O)N(C)Cc2ccc(Cl)s2)[nH]1` | 42.05% & 40.21% | 40.91% |
| 51 | `CCc1nc(C2CCCN2C(=O)c2csc(NC(C)=O)n2)no1` (stereo not shown) | -25.6% | -26.26% |
| 52 | `O=C(O)C(F)(F)F.[H][C@@]12CN(Cc3ccco3)CCC[C@]1(C(=O)O)CN(c1ncc(C)cn1)C2` | -12.42% | -10.23% & -2.613% |
| 53 | `CCOC(=O)NCc1nn(CCN2CCCC2)c(=O)c2ccccc12` | -3.414% | -2.086% |
| 54 | `N#CCCN(CCC#N)C(=O)COC1CCCCC1` | 19.67% | 31.6% |
| 55 | `Cc1ccnc(NC(=O)C2CCN(CCCn3ccnc3C)CC2)c1` | -6.596% | 0.8406% |
| 56 | `Cc1c(COc2ccccc2)cccc1NC(=O)N1CC[C@H](O)C1` | 13.12% | 16.3% |
| 57 | `Cl.Fc1cccc(CN2CCC(c3cc4ncccc4cn3)CC2)c1F` | 29.99% | 56.76% |
| 58 | `CS(=O)(=O)N1CC2(CCN(C3CCCCC3)CC2)Cc2ccccc21` | -4.375% | 17.21% |
| 59 | `Cc1cc(C)n(C2CN(C(=O)Cn3c(=O)c(C)nc4ccccc43)C2)n1` | -30.45% | 6.618% |
| 60 | `CC(=O)N(C)CC(=O)NCC1CCN(c2cc(Cl)ccc2C)C1` (stereo not shown) | -0.8899% | -1.121% |
| 61 | `CC(O)c1cccc(Nc2nc(NCCO)c3ccccc3n2)c1` (stereo not shown) | 18.67% | 18.77% |
| 62 | `Cc1ncnc2c1CCN(C(=O)Cc1ccccn1)CC2.O=C(O)C(F)(F)F` | -19.38% | -7.139% |
| 63 | `Cc1cccnc1NCCNC(=O)C1CCN(Cc2ccco2)CC1` | -15.59% | -27.25% |
| 64 | `O=C(O)C(F)(F)F.O=C(O)C(F)(F)F.c1cncc(CO[C@H]2CO[C@@]3(CCN(Cc4ccoc4)C3)C2)c1` | 1.282% | -4.459% |
| 65 | `Cc1ccc(C2(O)CCN(C(=O)Cn3cc(C)c(=O)[nH]c3=O)CC2)nc1` | 14.61% | 11.27% |
| 66 | `CCOC(=O)c1sc(NC(=O)CN2C(=O)CCC2=O)c(C#N)c1C` | 4.144% | 0.379% |
| 67 | `Cc1ccc(N2CCC(Nc3ccc4nnc(C)n4n3)CC2)nc1` | -10.05% & -37.99% | 16.17% |
| 68 | `O=C(O)C(F)(F)F.O=C(O)C(F)(F)F.O=C(O)C(F)(F)F.c1ccc(CO[C@@H]2CO[C@@]3(CCN(Cc4ccccn4)C3)C2)nc1` | -0.9092% | 7.884% |
| 69 | `Cc1ccc2c(c1)C(NCc1nccn1Cc1ccccc1)CCCO2` (stereo not shown) | 16.32% | 31.69% |
| 70 | `CSc1nccc(NCC2CNCCOC2)n1` (stereo not shown) | 10.58% | 11.35% |
| 71 | `Cn1c(CCC(=O)N2CCCC3(CC2)CNC(=O)O3)nc2cccnc21` (stereo not shown) | -67.23% | -77.54% |
| 72 | `c1ccc(CCCn2ccnc2-c2cn(C3CCNCC3)nn2)nc1` | -2.801% | 0.6756% |
| 73 | `COCCc1nnc(NC(=O)Cc2ccccc2Cl)o1` | -7.134% | -5.729% |
| 74 | `Cc1nc(C2(O)CCCNCC2)sc1CCOc1ccccc1.Cl` (stereo not shown) | -0.4045% | 19.66% |
| 75 | `O=C(O)C(F)(F)F.[H][C@@]12COC[C@]1(COCC)CN(Cc1ccc3c(c1)OCO3)C2` | -1.341% | 6.415% |
| 76 | `COCCNC(=O)c1ccc(NCc2csc(C)n2)cc1Cl` | -0.5732% | 3.906% |
| 77 | `[H][C@]12CC[C@]([H])(CN(c3nnc(C(C)C)s3)C1)N(CC1CCC1)C2` | 11.58% | 25.51% |
| 78 | `CN(Cc1ccncc1)C1CC2(CCN(c3ncc(F)cn3)CC2)C1.O=C(O)C(F)(F)F.O=C(O)C(F)(F)F` | 3.829% | 40.43% |
| 79 | `O=C(NCC1CCN(Cc2cc3ccccc3[nH]2)C1)c1ccsc1` (stereo not shown) | 3.083% | 24.74% |
| 80 | `CC(COc1ccccc1)NCc1nncn1C1CCCCC1` (stereo not shown) | -29.85% | -2.777% |
| 81 | `CN(C)CCN1CC2(CCC1=O)CCN(C(=O)c1ccn(C)n1)CC2` | -17.61% & -4.504% | 19.42% |
| 82 | `COC(=O)NCC(=O)N(C)CC1Cc2ccccc2CN1C` (stereo not shown) | -7.753% | 13.36% |
| 83 | `COc1ncc(CN(CCCN2CCOCC2)Cc2ccc(C)o2)cn1.O=C(O)CC(O)(CC(=O)O)C(=O)O` | 5.715% | -2.905% |

9 of the entries, repeated:

{"structure": "Cc1ccc(CN(c2cc(C)nc3nc(C(F)(F)F)nn23)C2CC2)cc1", "Mtb cholesterol medium": -14.15, "Mtb glucose medium": -6.896}
{"structure": "CCSc1ccc(C(C)NC(=O)CNS(C)(=O)=O)cc1", "stereo": "stereo not shown", "Mtb cholesterol medium": 0.5702, "Mtb glucose medium": 26.69}
{"structure": "COc1cccc(CN(C)CCCn2cnc3c(N)ncnc32)c1", "Mtb cholesterol medium": -8.643, "Mtb glucose medium": -0.0763}
{"structure": "Cc1cc(C)n(CC2CCCCN2CC(=O)Nc2nccs2)n1", "stereo": "stereo not shown", "Mtb cholesterol medium": 5.187, "Mtb glucose medium": -13.27}
{"structure": "CNC(=O)c1cnc(/C=C/c2cc(OC)c3c(c2)OCCO3)s1", "Mtb cholesterol medium": 1.533, "Mtb glucose medium": "10.42 & -0.1643"}
{"structure": "COc1cc(C2CC(=O)Nc3c2cnn3C)ccc1O", "stereo": "stereo not shown", "Mtb cholesterol medium": -11.39, "Mtb glucose medium": -0.3078}
{"structure": "N#CCCN(CCC#N)C(=O)COC1CCCCC1", "Mtb cholesterol medium": 19.67, "Mtb glucose medium": 31.6}
{"structure": "Cc1ncnc2c1CCN(C(=O)Cc1ccccn1)CC2.O=C(O)C(F)(F)F", "Mtb cholesterol medium": -19.38, "Mtb glucose medium": -7.139}
{"structure": "COc1ccc(C)cc1CN1CCN(Cc2nccn2C)CC1", "Mtb cholesterol medium": 4.975, "Mtb glucose medium": "1.127 & 9.306"}